These are yes or no findings as the source states them, for the method shown. Binding seen in cells or lysates may run through a third protein. Some binding calls cover weakened binding; strength is not graded here. Sequences can lack the tags named with a protein.
Molecular target: T1, HA-tagged ZEB1 (human) (UniProt P37275)
T1 sequence: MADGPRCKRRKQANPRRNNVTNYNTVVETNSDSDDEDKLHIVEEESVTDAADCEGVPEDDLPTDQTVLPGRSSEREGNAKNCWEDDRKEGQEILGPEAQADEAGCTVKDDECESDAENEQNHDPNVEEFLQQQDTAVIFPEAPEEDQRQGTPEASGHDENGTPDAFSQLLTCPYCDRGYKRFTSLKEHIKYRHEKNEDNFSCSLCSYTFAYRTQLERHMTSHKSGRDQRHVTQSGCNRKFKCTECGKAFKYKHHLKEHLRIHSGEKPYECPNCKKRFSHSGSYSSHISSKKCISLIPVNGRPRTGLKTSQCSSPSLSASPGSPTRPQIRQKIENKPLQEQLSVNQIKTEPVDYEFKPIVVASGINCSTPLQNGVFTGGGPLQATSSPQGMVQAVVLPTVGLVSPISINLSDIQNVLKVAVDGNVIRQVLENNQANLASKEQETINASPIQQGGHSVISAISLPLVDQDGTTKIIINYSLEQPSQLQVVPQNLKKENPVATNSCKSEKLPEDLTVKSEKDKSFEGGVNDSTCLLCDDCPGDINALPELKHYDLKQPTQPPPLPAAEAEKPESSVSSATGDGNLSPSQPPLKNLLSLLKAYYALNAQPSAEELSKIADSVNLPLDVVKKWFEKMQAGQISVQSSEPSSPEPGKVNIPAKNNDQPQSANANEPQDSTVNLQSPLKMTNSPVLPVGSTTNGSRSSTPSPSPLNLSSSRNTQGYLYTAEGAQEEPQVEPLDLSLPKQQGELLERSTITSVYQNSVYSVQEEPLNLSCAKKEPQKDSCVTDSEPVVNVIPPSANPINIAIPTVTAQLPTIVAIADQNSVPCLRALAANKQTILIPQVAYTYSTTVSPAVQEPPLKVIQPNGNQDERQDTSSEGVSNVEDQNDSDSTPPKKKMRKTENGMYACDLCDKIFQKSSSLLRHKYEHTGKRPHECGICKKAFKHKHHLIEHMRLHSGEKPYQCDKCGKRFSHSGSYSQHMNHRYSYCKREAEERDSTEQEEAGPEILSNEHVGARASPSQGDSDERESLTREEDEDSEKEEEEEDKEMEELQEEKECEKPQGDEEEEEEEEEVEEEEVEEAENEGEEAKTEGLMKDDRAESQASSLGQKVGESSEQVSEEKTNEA
Test: co-IP; NCI-H1395 cells transfected with FLAG-tagged TRIM58 or HA-tagged ZEB1; lysate with 2 uL FLAG/HA antibody and Protein A/G magnetic beads, 4 h at 4°C; immunoblotting by FLAG/HA antibodies

B1: FLAG-tagged TRIM58 (protein, UniProt Q8NG06 1-486)
chain: MAWAPPGERLREDARCPVCLDFLQEPVSVDCGHSFCLRCISEFCEKSDGAQGGVYACPQCRGPFRPSGFRPNRQLAGLVESVRRLGLGAGPGARRCARHGEDLSRFCEEDEAALCWVCDAGPEHRTHRTAPLQEAAGSYQVKLQMALELMRKELEDALTQEANVGKKTVIWKEKVEMQRQRFRLEFEKHRGFLAQEEQRQLRRLEAEERATLQRLRESKSRLVQQSKALKELADELQERCQRPALGLLEGVRGVLSRSKAVTRLEAENIPMELKTACCIPGRRELLRKFQVDVKLDPATAHPSLLLTADLRSVQDGEPWRDVPNNPERFDTWPCILGLQSFSSGRHYWEVLVGEGAEWGLGVCQDTLPRKGETTPSPENGVWALWLLKGNEYMVLASPSVPLLQLESPRCIGIFLDYEAGEISFYNVTDGSYIYTFNQLFSGLLRPYFFICDATPLILPPTTIAGSGNWASRDHLDPASDVRDDHL
  binding: binds
